This note sets out measurements from PubChem BioAssay AID493014 (National Center for Advancing Translational Sciences (NCATS), 2011).

Some of the results follow. Further columns of the screen follow, without active or inactive calls. The list favours compounds with an active or inconclusive main result. Potencies come from curve fits of mixed quality, noted in brackets.

A short description of this experiment: qHTS Assay to Find Inhibitors of Chronic Active B-Cell Receptor Signaling. To be noted: ABC-DLBCL IkBa-CBG/CBR reporter, luminescence ratio (green luciferase fused to IkBa over red control in TMD8 lymphoma cells), 4 h. In short, it runs like this: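 TMD8 human ABC-DLBCL cells with doxycycline-inducible IκBα–green luciferase fusion and unfused red luciferase, in 0.5% FBS medium; compounds up to 46 uM, 4 h at 37C. Green/red luminescence ratio, filter-overlap corrected, fitted to concentration-response curves.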

Where [1] appears, read: measured here: CBR red luminescence, cell number.
Setting [2] is: measured here: IkBa-CBG green luminescence.

Turning to `CCOC(=O)c1c(NC(=O)COc2ccccc2C#N)sc2c1CC(C)(C)NC2(C)C`, the AC50 under setting [1] is 35.5 µM [rising, single point].
Take `CN(C)CC(C(=O)c1ccccc1)c1ccccc1` (stereo not drawn): the AC50 under setting [1] is 20.6 µM [falling, single point].
Regarding `CC(C)[C@@H]1COC(c2cccc(C3=N[C@H](C(C)C)CO3)c2)=N1`, the AC50 under setting [1] is 22.4 µM [rising, partial curve, poor fit].
Turning to `Cc1ccc(C(C)C)cc1OCC(=O)N/N=C/c1ccc2c(c1)OCCO2`, the AC50 under setting [1] is 29.1 µM [falling, single point].
For `O=c1c2ccccc2nc(COc2ccccc2)n1/N=C/c1ccc(O)c(O)c1`, under setting [1], the AC50 was 35.5 µM [falling, single point].
With `O=C(Nc1cccc2ccccc12)NC1CCS(=O)(=O)C1` (stereo not drawn), under setting [1], the AC50 is 12.6 µM [rising, partial curve, poor fit].
With `O=C(c1ccco1)N1CCN(C(=O)c2ccc(-c3ccc(Cl)cc3)o2)CC1`, the AC50 under setting [1] was 4.61 µM [falling, full curve, poor fit].
For the compound `COc1cccc(NC(=S)NC(=O)Cc2ccc(Cl)cc2)c1`, the AC50 under setting [1] was 35.5 µM [falling, single point].
For `O=C(NCC1CCCO1)c1ccc(N2CCCCC2)c([N+](=O)[O-])c1` (stereo not drawn), the AC50 under setting [1] is 7.08 µM [rising, full curve, poor fit].
In the case of `Nc1nc(-c2ccccc2)c(N=Nc2cccc3ccccc23)s1`, under setting [1], the AC50 is 29.1 µM [rising, single point].
Consider `Nc1ccc(C(=O)N2CCN(S(=O)(=O)c3ccc4c(c3)OCCCO4)CC2)cc1[N+](=O)[O-]`, for which the AC50 under setting [1] was 7.31 µM [rising, partial curve, poor fit].
For the compound `Clc1cccc(Cl)c1COc1ccncc1`, the AC50 under setting [1] was 29.1 µM [rising, single point].
On to `COc1ccccc1-c1nc(-c2ccncc2)no1`, for which, under setting [1], the AC50 is 17.8 µM [falling, single point].
As to `O=C(CSc1ncnc2c1nnn2Cc1ccccc1F)NCC1CCCO1` (stereo not drawn), the AC50 under setting [1] is 14.1 µM [falling, partial curve].
As for `Nc1ccc(-c2nc3ccccc3[nH]2)cc1`, the AC50 under setting [1] is 16.4 µM [falling, single point].
With `CCCCCc1nnc(NC(=O)C2COc3ccccc3O2)s1` (stereo not drawn), under setting [1], the AC50 was 2.24 µM [rising, full curve, poor fit].
Still for that read-out and setting: the value for `Cc1ccc(NC(=O)/C(C#N)=C/c2ccc(Sc3nc(C)cc(C)n3)o2)cc1` was 1.03 µM [rising, full curve, poor fit]; that for `CC(C)c1nnc(NC(=O)CCS(=O)(=O)c2ccccc2)s1` was 11.2 µM [falling, partial curve, poor fit]; that for `Cc1ccc(Nc2nc(-c3sc(NC(=O)c4ccccc4)nc3C)cs2)cc1` was 8.91 µM [falling, partial curve, poor fit].
For the compound `Cc1ccc(CNC(=O)c2cc3c(=O)n4ccccc4nc3n(Cc3ccco3)c2=N)cc1`, the AC50 under setting [1] is 6.31 µM [falling, single point].
For `COc1cccc(C(=O)O/N=C(\N)c2ccc(C)cc2)c1`, under setting [1], the AC50 was 35.5 µM [falling, single point].
As for `O=C(Nc1ccc(F)cc1)Nc1nnc(-c2ccco2)s1`, the AC50 under setting [1] was 15.8 µM [falling, single point].
Regarding `CCc1ccc(O)c(CNCCNCc2cc(CC)ccc2O)c1`, under setting [1], the AC50 is 3.66 µM [falling, full curve, poor fit].
Take `CC1CCN(c2nc3c(c(=O)n(C)c(=O)n3C)n2CCSc2nc3ccccc3o2)CC1`: under setting [1], the AC50 is 0.013 µM [falling, full curve, poor fit].
On the same count and under the same terms, the value for `CCC(C)NC(=O)c1nn(Cc2ccccc2)c(=O)c2ccccc12` (stereo not drawn) was 28.2 µM [falling, single point].
The same measure, in the same setting: the value for `Cc1ccc([C@@H]2CC=C(C(=O)O)[C@H](c3ccc(C(C)(C)C)cc3)N2S(=O)(=O)c2ccc(C)cc2)cc1` was 23.1 µM [falling, single point]; that for `C/C(=N/NC(=O)c1cccs1)c1cccc(NC(=O)C2CC2)c1` was 35.5 µM [falling, single point].
Take `COC(=O)/C(=N/Nc1ccccc1C)N1CCCc2ccccc21`: the AC50 under setting [1] was 23.1 µM [falling, partial curve, poor fit].
The same measure, in the same setting: with `O=c1[nH]c(NC2CCCCC2)nnc1Cc1ccccc1` the figure was 35.5 µM [rising, single point]; with `O=C(Nc1ccc(-c2nnco2)cc1)c1ccccc1`, 8.2 µM [falling, partial curve].
Regarding `CC(=O)Nc1ccc(S(=O)(=O)N2CCSc3ccccc32)cc1`, the AC50 under setting [1] is 29.1 µM [falling, single point] and the AC50 under setting [2] is 2.91 µM [falling, full curve].
On to `COCC(=O)Nc1cc(OC)cc(OC)c1`, for which the AC50 under setting [1] is 2.59 µM [falling, partial curve, poor fit].
As for `CCN1CCN(c2cc(C)c3cc(NC(=S)N4CCOCC4)ccc3n2)CC1`, under setting [1], the AC50 was 17.8 µM [falling, single point].
With `Cc1ccnc(N2CCC(C(=O)Nc3ccc4c(c3)OCCO4)CC2)n1`, the AC50 under setting [1] was 12.6 µM [falling, partial curve, poor fit].
For the compound `CCn1nnc(NC(=O)c2cccnc2Cl)n1`, the AC50 under setting [1] is 16.4 µM [rising, single point].
Regarding `CN(c1cccc(Cl)c1)S(=O)(=O)c1cccc(C(=O)Nc2nc3ccccc3[nH]2)c1`, the AC50 under setting [1] is 16.4 µM [falling, single point].
Take `COc1ccccc1N1CCN(S(=O)(=O)c2ccc3c4c(cccc24)C(=O)N3C)CC1`: the AC50 reads like this: under setting [1], 5.17 µM [falling, single point]; under setting [2], 6.51 µM [rising, partial curve, poor fit].
Consider `COc1cc2c(cc1NC(=O)CSCC(=O)O)oc1ccccc12`, for which the AC50 under setting [1] is 7.08 µM [falling, partial curve].
Still for that read-out and setting: the value for `C[C@@H]1CN([C@H](C)CO)C(=O)c2cccc(NS(=O)(=O)c3cccs3)c2O[C@H]1CN(C)Cc1ccccc1` was 20.6 µM [falling, single point]; that for `COCCNC(=S)N1CCc2cc(OC)c(OC)cc2C1COc1ccc(F)cc1` (stereo not drawn) was 10 µM [rising, partial curve, poor fit].
For the compound `CCC(CO)Nc1ncnc2c1cnn2-c1ccc(Cl)cc1` (stereo not drawn), the AC50 under setting [1] was 11.2 µM [falling, partial curve].
